In all, about 330,000 compounds went through this assay and about 7,700 (2.3%) were called active. The shares of active, inactive and inconclusive entries below differ from those in the screen. Calls follow the shape of the dose curve; as a rule, active = well fitted inhibition curve with a large enough effect; inconclusive = small, poorly fitted or top-dose-only effect, or effect the other way; inactive = flat fitted curve, though single readings scatter. Where the call is inconclusive, the potency comes from a doubtful curve fit.
Test: qHTS screen for small molecules that inhibit ELG1-dependent DNA repair in human embryonic kidney (HEK293T) cells expressing luciferase-tagged ELG1; also: nearly all actives have a fitted effect of over 55% in size
Settings: HEK293T ELG1-luciferase reporter, luminescence, 16 h, DNA damage induced by 5-fluorouridine; activity change, negative = inhibition: at 46.1 µM (top of the series)
How it was run: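 5-Fluorouridine DNA damage + compound/DMSO, 2,000 cells/well, 16 h, 37 °C/5% CO2. ONE-Glo, 30 min RT, luminescence. Readout = decrease in reporter signal.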
% is scaled to controls: 0 for no effect and ±100 for the full control effect; potency is read from the fitted curve at half-maximal effect.

Row | Structure (SMILES) | Potency | activity change, negative = inhibition
1 | CCCC(=O)Nc1ccc2nc(SCC(=O)N3CCCC3)sc2c1 | inconclusive: 20.6 µM [inhibitor, partial curve, poor fit] | 
2 | COc1ccc(NC(=O)N/C=C/c2ccc(Cl)cc2)cc1 |  | inactive: -13.8%
3 | CCCCn1c(N)c(N(Cc2ccccc2OC)C(=O)c2ccc([N+](=O)[O-])s2)c(=O)[nH]c1=O |  | inactive: -0.0952%
4 | CN(C)c1ccc(N=Nc2nc3ccccc3n2C)cc1 | inconclusive: 29.1 µM [inhibitor, single point] | 
5 | CCOC(=O)c1cccc(NC(=O)c2ccc(NC(=O)c3ccco3)cc2)c1 | inconclusive: 32.6 µM [activator, partial curve, poor fit] | 
6 | O=C(N/N=C/c1ccc2c(c1)OCO2)c1ccc2c(c1)OCO2 | inconclusive: 2.91 µM [activator, single point] | 
7 | Cc1ccc(Nc2nc3ccccc3s2)cc1 | inconclusive: 1.3 µM [activator, full curve] | 
8 | O=C(NC1CC(=O)N(c2ccccc2)C1)N1CCN(C(=O)c2ccco2)CC1 (centres undefined) |  | inactive: -2.99%
9 | COc1ccccc1OCC(=O)Nc1nnc(-c2ccco2)s1 | inconclusive: 23.1 µM [activator, single point] | 
10 | CC(C)(C)C(=O)CN1C(=O)NC2(CCc3ccccc32)C1=O (centres undefined) |  | inactive: -0.449%
11 | COc1cccc(-c2nc3ccc(O)cc3c(=O)o2)c1 |  | inactive: -1.48%
12 | Cc1c(C)n(CCO)c2ncnc(Nc3ccc(F)cc3)c12 | inconclusive: 18.3 µM [activator, partial curve] | 
13 | O=C(CN1C(=O)c2cccnc2Oc2ccc(Cl)cc21)Nc1ccccc1F | inconclusive: 25.9 µM [inhibitor, single point] | 
14 | CNC(=S)N(C)c1ccccc1 | inconclusive: 16.4 µM [activator, single point] | 
15 | N#CCC(=O)Nc1ccc(C(=O)OCC(=O)NCCCc2ccccc2)cc1 |  | inactive: -1.64%
16 | O=C(N/C(C(=O)N1CCOCC1)=C(\Sc1ncccn1)c1ccccc1)c1ccccc1 | active: 23.1 µM | 
17 | Cc1nc2ccc(NC(=O)c3cccs3)cc2c(=O)n1Cc1ccc(Cl)cc1 | active: 7.31 µM | 
18 | Cc1cccc(NC(=S)N2N=CCC2c2ccccc2)c1 (centres undefined) | inconclusive: 23.1 µM [activator, partial curve] | 
19 | COC(=O)c1c(-c2ccc(SC)cc2)sc2ccccc12 | inconclusive: 18.3 µM [activator, single point] | 
20 | Cc1ccc2[nH]c(CN3CCC(CO)(CC4CCCCO4)CC3)c(C)c2c1 (centres undefined) |  | inactive: 24%

From compound 1 to 2, as listed above:
Row | Structure (SMILES) | Potency | activity change, negative = inhibition
1 | CCCC(=O)Nc1ccc2nc(SCC(=O)N3CCCC3)sc2c1 | inconclusive: 20.6 µM [inhibitor, partial curve, poor fit] | 
2 | COc1ccc(NC(=O)N/C=C/c2ccc(Cl)cc2)cc1 |  | inactive: -13.8%

(further entries)

Row | Structure (SMILES) | Potency | activity change, negative = inhibition
21 | CN(CC(=O)Nc1cccc(F)c1)C(=O)c1cc(-c2ccccc2)nc2ccccc12 | inconclusive: 25.9 µM [inhibitor, single point] | 
22 | COc1ccc(NS(=O)(=O)c2cc3c4c(c2)C(C)C(=O)N4CCC3)cc1 (centres undefined) |  | inactive: -2.65%
23 | COc1cccc(-c2csc(NC(=O)Nc3ccccc3)n2)c1 | inconclusive: 29.1 µM [inhibitor, single point] | 
24 | O=S(=O)(Nc1ccc(-n2cnnn2)cc1)c1cccs1 | inconclusive: 23.1 µM [activator, single point] | 
25 | N#Cc1ccc(CSc2ccc(S(=O)(=O)N3CCCCCC3)cn2)cc1 | inconclusive: 29.1 µM [inhibitor, single point] | 
26 | O=C(CC1(O)C(=O)Nc2ccc(Br)cc21)c1ccc2c(c1)OCO2 (centres undefined) |  | inactive: -4.6%
27 | CCOC(=O)N1CCN(c2nc(-c3cccs3)nc3ccccc23)CC1 | inconclusive: 18.3 µM [inhibitor, single point] | 
28 | Cc1ccccc1-c1nc(C#N)c(N2CCCCC2)o1 |  | inactive: 20.8%
29 | CC(=O)Nc1ccc(NC(=O)c2cccc(-c3cc4ccccc4oc3=O)c2)cc1 | inconclusive: 16.4 µM [activator, partial curve] | 
30 | Fc1ccc(N2CCN(c3cnc4ccccc4n3)CC2)cc1 | inconclusive: 3.66 µM [activator, full curve] | 
31 | Cc1ccc(NC(=O)CSc2nnc(C)c(=O)n2N)cc1Cl |  | inactive: 8.51%
32 | Cc1cc(=O)cc(C)n1-c1ccccc1N1CCOCC1 |  | inactive: 13.5%
33 | O=C(O)c1ccc2c(c1)ncn2C1CCCC1 | inconclusive: 29.1 µM [activator, single point] | 
34 | C/C(CC(=O)Nc1ccc2c(c1)OCCO2)=N\NC(=O)COc1ccc(C)cc1Br |  | inactive: 0%
35 | COCC(C)NC(=O)c1oc2c(c1C)C1(CCC2)SCCS1 (centres undefined) | inconclusive: 18.4 µM [inhibitor, partial curve] | 
36 | CNC(=S)NNS(=O)(=O)c1ccc(OC)cc1OC |  | inactive: 4.08%
37 | O=C(O)CCC(=O)N1CCN(S(=O)(=O)c2ccc3ccccc3c2)CC1 |  | inactive: 10.5%
38 | O=C(N/N=C/c1ccc2c(c1)OCO2)c1ccccn1 | inconclusive: 1 µM [activator, full curve] | 
39 | O=S(=O)(Nc1ccc(Br)cc1)c1cccc2cccnc12 |  | inactive: -0.184%

Source: PubChem BioAssay AID504467 (National Center for Advancing Translational Sciences (NCATS), 2011)
